Measurements reported in PubChem BioAssay AID1159594 (NIAID, 2016).

- Aim: 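Genes required for a TNF reporter response to diacyl lipopeptide stimulation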
- Cell system: human THP-1 B5 reporter cells, PMA-differentiated into macrophage-like cells
- Reagents: single siRNA against human genes
- Time to read-out: 48 to 72 hours after siRNA transfection; ligand exposure 4 hours
- Treatment: Pam2CSK4 (TLR2/6 agonist) stimulation for 4 hours before lysis; dose not given
- Detection: 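TNF promoter reporter signal as firefly to renilla luciferase ratio, scaled per plate by median and MAD, given as robust z-score against negative controls, averaged across replicates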
- Reading the numbers: TNF reporter z-score: higher = stronger TNF promoter reporter activity
- Rule for the call: 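Active when the mean z-score across replicates is at or beyond ±1.5 in either direction, matching a depositor grade of 50 or higher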
- Calls: active = z-score beyond ±1.5 (either direction); inactive = z-score within ±1.5
Here is an unselected part of 756 reagents tested. 130 of them (17%) count as active. 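Active calls cover both falls and rises of reporter activity; each row reflects one siRNA, not a gene-level verdict.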 Entries without a mark were called inactive. The numbers tell different reagents against one gene apart. The record does not give: the amount of reagent.

| gene symbol | reagent | TNF reporter z-score, replicate mean |
| --- | --- | --- |
| TICAM1 (TIR domain containing adaptor molecule 1) | 1 | -0.206 |
| TICAM1 (TIR domain containing adaptor molecule 1) | 2 | 0.0623 |
| TICAM1 (TIR domain containing adaptor molecule 1) | 3 | 0.275 |
| TICAM1 (TIR domain containing adaptor molecule 1) | 4 | -2.75 (active) |
| TICAM1 (TIR domain containing adaptor molecule 1) | 5 | -1.17 |
| TICAM1 (TIR domain containing adaptor molecule 1) | 6 | -0.939 |
| MAP2K1 (mitogen-activated protein kinase kinase 1) | 1 | -0.866 |
| MAP2K1 (mitogen-activated protein kinase kinase 1) | 2 | -0.913 |
| MAP2K1 (mitogen-activated protein kinase kinase 1) | 3 | -0.82 |
| MAP2K1 (mitogen-activated protein kinase kinase 1) | 4 | -0.447 |
| MAP2K1 (mitogen-activated protein kinase kinase 1) | 5 | -1.49 |
| MAP2K1 (mitogen-activated protein kinase kinase 1) | 6 | 0.121 |
| DUSP1 (dual specificity phosphatase 1) | 1 | -0.248 |
| DUSP1 (dual specificity phosphatase 1) | 2 | 1.12 |
| DUSP1 (dual specificity phosphatase 1) | 3 | -0.599 |
| DUSP1 (dual specificity phosphatase 1) | 4 | 1.6 (active) |
| DUSP1 (dual specificity phosphatase 1) | 5 | -0.592 |
| DUSP1 (dual specificity phosphatase 1) | 6 | 0.348 |
| ATF2 (activating transcription factor 2) | 1 | -1.46 |
| ATF2 (activating transcription factor 2) | 2 | -0.651 |
| ATF2 (activating transcription factor 2) | 3 | -1.01 |
| ATF2 (activating transcription factor 2) | 4 | -0.295 |
| ATF2 (activating transcription factor 2) | 5 | -0.663 |
| ATF2 (activating transcription factor 2) | 6 | -1.21 |
| ATF7 (activating transcription factor 7) | 1 | -0.954 |
| ATF7 (activating transcription factor 7) | 2 | 0.0279 |
| ATF7 (activating transcription factor 7) | 3 | -0.445 |
| ATF7 (activating transcription factor 7) | 4 | 0.13 |
| ATF7 (activating transcription factor 7) | 5 | -2.58 (active) |
| ATF7 (activating transcription factor 7) | 6 | -1.28 |
| MAPK3 (mitogen-activated protein kinase 3) | 1 | -0.46 |
| MAPK3 (mitogen-activated protein kinase 3) | 2 | -1.31 |
| MAPK3 (mitogen-activated protein kinase 3) | 3 | -1.24 |
| MAPK3 (mitogen-activated protein kinase 3) | 4 | 0.503 |
| MAPK3 (mitogen-activated protein kinase 3) | 5 | -1.91 (active) |
| MAPK3 (mitogen-activated protein kinase 3) | 6 | -1.33 |
| OTUD5 (OTU deubiquitinase 5) | 1 | -1.46 |
| OTUD5 (OTU deubiquitinase 5) | 2 | -1.93 (active) |
| OTUD5 (OTU deubiquitinase 5) | 3 | -0.878 |
| OTUD5 (OTU deubiquitinase 5) | 4 | -2.03 (active) |
| OTUD5 (OTU deubiquitinase 5) | 5 | -1.9 (active) |
| OTUD5 (OTU deubiquitinase 5) | 6 | -1.8 (active) |
| IL12A (interleukin 12A) | 1 | 0.34 |
| IL12A (interleukin 12A) | 2 | -1.05 |
| IL12A (interleukin 12A) | 3 | 0.62 |
| IL12A (interleukin 12A) | 4 | 0.449 |
| IL12A (interleukin 12A) | 5 | -0.97 |
| IL12A (interleukin 12A) | 6 | -0.635 |
| UBE2N (ubiquitin conjugating enzyme E2 N) | 1 | 0.337 |
| UBE2N (ubiquitin conjugating enzyme E2 N) | 2 | -1.49 |
| UBE2N (ubiquitin conjugating enzyme E2 N) | 3 | 0.869 |
| UBE2N (ubiquitin conjugating enzyme E2 N) | 4 | -0.521 |
| UBE2N (ubiquitin conjugating enzyme E2 N) | 5 | -0.63 |
| UBE2N (ubiquitin conjugating enzyme E2 N) | 6 | 0.269 |
| TLR9 (toll like receptor 9) | 1 | -1.19 |
| TLR9 (toll like receptor 9) | 2 | -0.0044 |
| TLR9 (toll like receptor 9) | 3 | 0.762 |
| TLR9 (toll like receptor 9) | 4 | 1.34 |
| TLR9 (toll like receptor 9) | 5 | 0.232 |
| TLR9 (toll like receptor 9) | 6 | 1.02 |
| TLR5 (toll like receptor 5) | 1 | -0.246 |
| TLR5 (toll like receptor 5) | 2 | 0.116 |
| TLR5 (toll like receptor 5) | 3 | -0.716 |
| TLR5 (toll like receptor 5) | 4 | -0.147 |
| TLR5 (toll like receptor 5) | 5 | 0.255 |
| TLR5 (toll like receptor 5) | 6 | -1.8 (active) |
| ELF4 (E74 like ETS transcription factor 4) | 1 | -1.9 (active) |
| ELF4 (E74 like ETS transcription factor 4) | 2 | -1.61 (active) |
| ELF4 (E74 like ETS transcription factor 4) | 3 | -0.496 |
| ELF4 (E74 like ETS transcription factor 4) | 4 | -1.47 |
| ELF4 (E74 like ETS transcription factor 4) | 5 | -1.36 |
| ELF4 (E74 like ETS transcription factor 4) | 6 | -0.444 |
| DAB2IP (DAB2 interacting protein) | 1 | -0.522 |
| DAB2IP (DAB2 interacting protein) | 2 | -1.37 |
| DAB2IP (DAB2 interacting protein) | 3 | 0.0305 |
| DAB2IP (DAB2 interacting protein) | 4 | -1.02 |
| DAB2IP (DAB2 interacting protein) | 5 | -0.961 |
| DAB2IP (DAB2 interacting protein) | 6 | 0.972 |
| TANK (TRAF family member associated NFKB activator) | 1 | 0.957 |
| TANK (TRAF family member associated NFKB activator) | 2 | -0.695 |
| TANK (TRAF family member associated NFKB activator) | 3 | 0.0493 |
| TANK (TRAF family member associated NFKB activator) | 4 | 1.15 |
| TANK (TRAF family member associated NFKB activator) | 5 | -0.827 |
| TANK (TRAF family member associated NFKB activator) | 6 | -1.27 |
| CXCL11 (C-X-C motif chemokine ligand 11) | 1 | -0.918 |
| CXCL11 (C-X-C motif chemokine ligand 11) | 2 | 0.452 |
| CXCL11 (C-X-C motif chemokine ligand 11) | 3 | 0.202 |
| CXCL11 (C-X-C motif chemokine ligand 11) | 4 | 0.215 |
| CXCL11 (C-X-C motif chemokine ligand 11) | 5 | -0.225 |
| CXCL11 (C-X-C motif chemokine ligand 11) | 6 | 0.166 |
| PIK3R5 (phosphoinositide-3-kinase regulatory subunit 5) | 1 | 0.409 |
| PIK3R5 (phosphoinositide-3-kinase regulatory subunit 5) | 2 | -1.14 |
| PIK3R5 (phosphoinositide-3-kinase regulatory subunit 5) | 3 | 0.0119 |
| PIK3R5 (phosphoinositide-3-kinase regulatory subunit 5) | 4 | 0.171 |
| PIK3R5 (phosphoinositide-3-kinase regulatory subunit 5) | 5 | -0.569 |
| PIK3R5 (phosphoinositide-3-kinase regulatory subunit 5) | 6 | -0.965 |
| IKBKB (inhibitor of nuclear factor kappa B kinase subunit beta) | 1 | 0.361 |
| IKBKB (inhibitor of nuclear factor kappa B kinase subunit beta) | 2 | -0.903 |
| IKBKB (inhibitor of nuclear factor kappa B kinase subunit beta) | 3 | 0.532 |
| IKBKB (inhibitor of nuclear factor kappa B kinase subunit beta) | 4 | 0.219 |
| IKBKB (inhibitor of nuclear factor kappa B kinase subunit beta) | 5 | -0.0622 |
| IKBKB (inhibitor of nuclear factor kappa B kinase subunit beta) | 6 | -0.247 |
| PIK3R3 (phosphoinositide-3-kinase regulatory subunit 3) | 1 | 1.24 |
| PIK3R3 (phosphoinositide-3-kinase regulatory subunit 3) | 2 | -0.78 |
| PIK3R3 (phosphoinositide-3-kinase regulatory subunit 3) | 3 | -0.582 |
| PIK3R3 (phosphoinositide-3-kinase regulatory subunit 3) | 4 | -0.399 |
| PIK3R3 (phosphoinositide-3-kinase regulatory subunit 3) | 5 | -0.969 |
| PIK3R3 (phosphoinositide-3-kinase regulatory subunit 3) | 6 | -1.94 (active) |
| RIPK3 (receptor interacting serine/threonine kinase 3) | 1 | 0.155 |
| RIPK3 (receptor interacting serine/threonine kinase 3) | 2 | -0.831 |
| RIPK3 (receptor interacting serine/threonine kinase 3) | 3 | 0.624 |
| RIPK3 (receptor interacting serine/threonine kinase 3) | 4 | -0.345 |
| RIPK3 (receptor interacting serine/threonine kinase 3) | 5 | -0.691 |
| RIPK3 (receptor interacting serine/threonine kinase 3) | 6 | -0.0617 |
